The source of these data is article doi:10.1101/2023.10.30.564812.

Chains of the proteins cited; added tags and fusions are not shown.
UniProt Q3UCQ1: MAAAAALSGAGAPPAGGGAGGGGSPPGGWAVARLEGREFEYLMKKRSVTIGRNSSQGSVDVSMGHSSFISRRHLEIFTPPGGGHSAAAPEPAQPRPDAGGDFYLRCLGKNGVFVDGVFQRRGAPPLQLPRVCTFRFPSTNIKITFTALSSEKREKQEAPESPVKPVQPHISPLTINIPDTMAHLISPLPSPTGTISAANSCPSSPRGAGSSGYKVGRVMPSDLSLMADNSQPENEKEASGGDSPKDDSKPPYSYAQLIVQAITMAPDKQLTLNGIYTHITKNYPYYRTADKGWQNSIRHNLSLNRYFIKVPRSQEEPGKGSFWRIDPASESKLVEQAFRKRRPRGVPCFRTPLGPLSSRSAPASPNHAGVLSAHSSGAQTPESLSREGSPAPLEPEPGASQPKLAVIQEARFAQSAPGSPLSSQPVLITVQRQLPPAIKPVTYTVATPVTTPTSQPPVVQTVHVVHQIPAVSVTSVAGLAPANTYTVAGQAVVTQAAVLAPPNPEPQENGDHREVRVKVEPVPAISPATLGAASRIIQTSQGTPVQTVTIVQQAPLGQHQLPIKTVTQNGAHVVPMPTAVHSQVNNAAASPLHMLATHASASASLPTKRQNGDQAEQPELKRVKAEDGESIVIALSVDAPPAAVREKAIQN
UniProt Q80U72: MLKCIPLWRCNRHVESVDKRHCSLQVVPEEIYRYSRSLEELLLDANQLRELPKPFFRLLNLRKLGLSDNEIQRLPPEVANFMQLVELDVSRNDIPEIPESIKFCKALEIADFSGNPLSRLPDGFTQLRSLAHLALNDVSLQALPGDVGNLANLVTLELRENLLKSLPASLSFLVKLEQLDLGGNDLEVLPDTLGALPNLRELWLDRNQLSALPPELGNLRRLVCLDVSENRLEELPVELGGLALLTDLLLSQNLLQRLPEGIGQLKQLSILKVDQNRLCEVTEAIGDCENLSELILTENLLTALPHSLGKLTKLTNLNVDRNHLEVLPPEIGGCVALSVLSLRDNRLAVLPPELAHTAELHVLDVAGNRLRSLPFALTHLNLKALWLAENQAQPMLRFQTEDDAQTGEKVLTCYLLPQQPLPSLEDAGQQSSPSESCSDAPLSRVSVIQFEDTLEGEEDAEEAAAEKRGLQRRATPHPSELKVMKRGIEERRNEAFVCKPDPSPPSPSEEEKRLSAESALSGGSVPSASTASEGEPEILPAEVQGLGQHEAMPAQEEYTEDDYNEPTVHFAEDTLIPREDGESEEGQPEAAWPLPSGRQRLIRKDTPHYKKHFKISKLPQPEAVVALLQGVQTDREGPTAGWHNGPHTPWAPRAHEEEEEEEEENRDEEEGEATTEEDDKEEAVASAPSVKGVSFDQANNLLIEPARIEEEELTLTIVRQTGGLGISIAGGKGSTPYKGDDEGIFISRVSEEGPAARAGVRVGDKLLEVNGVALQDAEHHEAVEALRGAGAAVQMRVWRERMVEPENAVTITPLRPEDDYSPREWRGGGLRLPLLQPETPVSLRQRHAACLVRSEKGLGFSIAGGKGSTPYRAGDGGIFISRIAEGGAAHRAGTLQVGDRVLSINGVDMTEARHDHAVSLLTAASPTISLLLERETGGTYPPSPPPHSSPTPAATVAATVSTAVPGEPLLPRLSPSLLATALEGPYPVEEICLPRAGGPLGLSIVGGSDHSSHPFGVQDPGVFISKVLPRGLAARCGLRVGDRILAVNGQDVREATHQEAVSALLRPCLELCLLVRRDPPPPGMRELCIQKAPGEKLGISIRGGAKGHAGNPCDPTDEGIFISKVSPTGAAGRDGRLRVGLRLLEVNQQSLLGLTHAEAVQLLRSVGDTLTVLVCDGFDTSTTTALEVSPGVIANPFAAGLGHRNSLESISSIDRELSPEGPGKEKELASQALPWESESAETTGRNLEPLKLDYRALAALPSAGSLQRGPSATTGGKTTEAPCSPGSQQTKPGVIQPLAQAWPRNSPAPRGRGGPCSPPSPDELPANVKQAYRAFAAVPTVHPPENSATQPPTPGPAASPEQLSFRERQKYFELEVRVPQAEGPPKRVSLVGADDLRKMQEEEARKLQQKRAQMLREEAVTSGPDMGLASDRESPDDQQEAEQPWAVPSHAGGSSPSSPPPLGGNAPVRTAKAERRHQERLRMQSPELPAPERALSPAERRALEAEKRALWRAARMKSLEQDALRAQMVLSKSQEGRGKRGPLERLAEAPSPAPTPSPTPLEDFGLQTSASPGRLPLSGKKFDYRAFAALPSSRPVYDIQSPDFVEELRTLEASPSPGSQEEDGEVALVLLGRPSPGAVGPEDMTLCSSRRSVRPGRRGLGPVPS
UniProt P52019: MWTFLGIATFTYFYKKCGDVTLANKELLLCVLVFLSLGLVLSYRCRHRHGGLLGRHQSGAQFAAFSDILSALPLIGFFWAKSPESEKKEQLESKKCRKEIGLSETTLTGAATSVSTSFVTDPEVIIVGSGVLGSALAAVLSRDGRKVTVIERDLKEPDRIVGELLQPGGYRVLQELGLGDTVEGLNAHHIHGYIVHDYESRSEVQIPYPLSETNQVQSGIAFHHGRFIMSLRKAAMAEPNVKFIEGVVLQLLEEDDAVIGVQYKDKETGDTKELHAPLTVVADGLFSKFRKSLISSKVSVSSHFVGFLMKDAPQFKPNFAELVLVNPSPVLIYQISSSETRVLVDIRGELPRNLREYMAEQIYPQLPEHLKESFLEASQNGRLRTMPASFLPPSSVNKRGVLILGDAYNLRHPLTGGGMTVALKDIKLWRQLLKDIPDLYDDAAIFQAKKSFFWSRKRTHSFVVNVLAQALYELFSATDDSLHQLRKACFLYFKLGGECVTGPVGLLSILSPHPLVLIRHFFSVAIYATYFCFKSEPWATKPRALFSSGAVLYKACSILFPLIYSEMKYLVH
UniProt P05627: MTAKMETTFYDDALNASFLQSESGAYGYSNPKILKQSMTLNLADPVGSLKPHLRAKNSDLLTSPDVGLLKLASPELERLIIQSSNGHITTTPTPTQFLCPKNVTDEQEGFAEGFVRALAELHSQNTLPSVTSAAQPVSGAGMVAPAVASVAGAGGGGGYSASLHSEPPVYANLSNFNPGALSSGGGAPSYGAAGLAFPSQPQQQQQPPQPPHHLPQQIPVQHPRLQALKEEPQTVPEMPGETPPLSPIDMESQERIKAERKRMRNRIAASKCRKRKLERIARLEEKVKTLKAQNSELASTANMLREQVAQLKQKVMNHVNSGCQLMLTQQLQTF
UniProt Q5NBX1: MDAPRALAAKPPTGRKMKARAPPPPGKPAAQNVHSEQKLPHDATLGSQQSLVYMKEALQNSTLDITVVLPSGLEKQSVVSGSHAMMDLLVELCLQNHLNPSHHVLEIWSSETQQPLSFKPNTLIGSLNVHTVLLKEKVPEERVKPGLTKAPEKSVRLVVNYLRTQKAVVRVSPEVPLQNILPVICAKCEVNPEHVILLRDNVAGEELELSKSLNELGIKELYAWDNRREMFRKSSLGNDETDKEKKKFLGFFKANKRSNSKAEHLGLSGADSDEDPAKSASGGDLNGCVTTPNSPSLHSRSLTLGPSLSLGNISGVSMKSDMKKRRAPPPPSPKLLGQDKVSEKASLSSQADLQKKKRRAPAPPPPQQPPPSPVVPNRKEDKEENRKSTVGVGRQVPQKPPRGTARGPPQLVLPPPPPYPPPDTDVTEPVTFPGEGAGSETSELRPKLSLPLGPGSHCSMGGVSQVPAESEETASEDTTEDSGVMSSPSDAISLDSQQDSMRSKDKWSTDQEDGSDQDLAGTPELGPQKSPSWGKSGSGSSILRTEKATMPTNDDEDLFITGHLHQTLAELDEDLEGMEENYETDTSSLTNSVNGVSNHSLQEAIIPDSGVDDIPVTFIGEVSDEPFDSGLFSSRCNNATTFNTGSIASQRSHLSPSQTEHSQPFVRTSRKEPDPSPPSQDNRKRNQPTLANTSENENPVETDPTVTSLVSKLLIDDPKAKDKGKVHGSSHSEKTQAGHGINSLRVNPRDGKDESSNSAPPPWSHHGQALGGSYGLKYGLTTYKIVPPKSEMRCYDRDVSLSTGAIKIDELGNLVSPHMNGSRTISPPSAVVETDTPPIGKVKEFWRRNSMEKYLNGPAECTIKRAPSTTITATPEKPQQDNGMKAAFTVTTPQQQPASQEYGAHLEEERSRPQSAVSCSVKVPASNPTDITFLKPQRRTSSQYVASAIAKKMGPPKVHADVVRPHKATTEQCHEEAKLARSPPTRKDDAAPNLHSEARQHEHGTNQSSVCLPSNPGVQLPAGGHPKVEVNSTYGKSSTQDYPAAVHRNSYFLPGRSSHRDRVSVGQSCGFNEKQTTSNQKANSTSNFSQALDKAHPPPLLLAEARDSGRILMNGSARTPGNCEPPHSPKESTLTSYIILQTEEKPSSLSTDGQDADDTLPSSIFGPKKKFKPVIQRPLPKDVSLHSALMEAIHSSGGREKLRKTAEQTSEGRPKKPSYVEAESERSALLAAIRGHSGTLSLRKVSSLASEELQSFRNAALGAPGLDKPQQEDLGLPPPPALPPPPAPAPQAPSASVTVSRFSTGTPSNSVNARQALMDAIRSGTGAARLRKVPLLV
UniProt Q9QUI0: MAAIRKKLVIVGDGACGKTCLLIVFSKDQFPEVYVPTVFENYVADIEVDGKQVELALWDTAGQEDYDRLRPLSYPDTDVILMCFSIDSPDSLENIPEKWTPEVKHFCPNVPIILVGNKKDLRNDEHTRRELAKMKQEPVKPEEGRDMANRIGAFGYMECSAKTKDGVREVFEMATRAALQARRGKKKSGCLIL
UniProt P63094: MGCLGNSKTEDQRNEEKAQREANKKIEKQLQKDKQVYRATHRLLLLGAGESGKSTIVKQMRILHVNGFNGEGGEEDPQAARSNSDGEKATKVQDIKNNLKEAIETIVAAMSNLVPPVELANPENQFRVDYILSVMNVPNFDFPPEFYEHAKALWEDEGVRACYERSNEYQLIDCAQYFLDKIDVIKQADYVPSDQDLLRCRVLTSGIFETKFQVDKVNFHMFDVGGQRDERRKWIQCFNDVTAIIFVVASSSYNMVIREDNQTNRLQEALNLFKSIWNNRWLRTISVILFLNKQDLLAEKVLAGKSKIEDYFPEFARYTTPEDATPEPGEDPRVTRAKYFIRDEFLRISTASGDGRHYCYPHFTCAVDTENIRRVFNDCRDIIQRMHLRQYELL
UniProt Q80XP8: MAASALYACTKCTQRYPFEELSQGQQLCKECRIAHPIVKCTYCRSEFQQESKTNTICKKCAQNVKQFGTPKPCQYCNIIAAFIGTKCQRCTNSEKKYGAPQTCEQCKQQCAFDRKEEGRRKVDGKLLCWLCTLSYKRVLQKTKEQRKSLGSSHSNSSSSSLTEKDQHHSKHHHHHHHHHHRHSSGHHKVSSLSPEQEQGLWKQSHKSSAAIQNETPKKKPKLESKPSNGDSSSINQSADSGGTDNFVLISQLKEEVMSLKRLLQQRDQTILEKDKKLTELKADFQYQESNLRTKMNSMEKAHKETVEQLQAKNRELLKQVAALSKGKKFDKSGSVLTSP
UniProt P60766: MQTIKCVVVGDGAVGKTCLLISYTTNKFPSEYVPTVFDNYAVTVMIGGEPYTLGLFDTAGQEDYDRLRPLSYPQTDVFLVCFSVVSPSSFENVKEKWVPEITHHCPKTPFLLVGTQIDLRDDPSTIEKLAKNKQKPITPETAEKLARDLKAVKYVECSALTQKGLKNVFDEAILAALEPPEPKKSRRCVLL

No constants are given. Whether binding was seen depends on the method and setting. Binding seen in cells or lysates may run through a third protein. These calls come from enrichment with a bait or labelling near it, and not all partners need be listed. A no says only that the protein was not detected with the bait. Sequences can lack the tags named with a protein.

T1: FLAG-C18ORF25-WT (mouse) (UniProt Q8BH50)
T1 sequence: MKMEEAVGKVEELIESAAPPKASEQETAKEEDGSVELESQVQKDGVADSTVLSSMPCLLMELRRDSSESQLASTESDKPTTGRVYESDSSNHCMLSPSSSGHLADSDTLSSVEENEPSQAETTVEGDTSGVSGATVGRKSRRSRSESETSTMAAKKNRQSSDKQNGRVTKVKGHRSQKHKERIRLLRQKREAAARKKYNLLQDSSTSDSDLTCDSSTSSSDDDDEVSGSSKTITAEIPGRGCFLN

B1: FHL2 (protein, UniProt O70433 1-279)
chain: MTERFDCHHCNESLYGKKYILKEENPHCVACFEELYANTCEECGTPIGCDCKDLSYKDRHWHEGCFHCSRCGSSLVDKPFAAKEEQLLCTDCYSNEYSSKCQECKKTIMPGTRKMEYKGSSWHETCFTCQRCQQPIGTKSFIPKENQNFCVPCYEKQYALQCVQCKKPITTGGVTYREQPWHKECFVCTACKKQLSGQRFTARDEFPYCLTCFCDLYAKKCAGCTNPISGLGGTKYISFEERQWHNDCFNCKKCSLSLVGRGFLTERDDILCPDCGKDI
B2: RALB (protein, UniProt Q9JIW9 1-206)
chain: MAANKGKSQGSLVLHKVIMVGSGGVGKSALTLQFMYDEFVEDYEPTKADSYRKKVVLDGEEVQIDILDTAGQEDYAAIRDNYFRSGEGFLLVFSITEHESFTATAEFREQILRVKSEEDKIPLLVVGNKSDLEERRQVPVDEARGKAEEWGVQYVETSAKTRANVDKVFFDLMREIRAKKMSENKDKNGRKSSKSKKSFKERCCLL
B3: MYL2 (protein, UniProt P51667 1-166)
chain: MAPKKAKKRIEGGSSNVFSMFEQTQIQEFKEAFTIMDQNRDGFIDKNDLRDTFAALGRVNVKNEEIDEMIKEAPGPINFTVFLTMFGEKLKGADPEETILNAFKVFDPEGKGSLKADYVREMLTTQAERFSKEEIDQMFAAFPPDVTGNLDYKNLVHIITHGEEKD
B4: RRAS2 (protein, UniProt P62071 1-204)
chain: MAAAGWRDGSGQEKYRLVVVGGGGVGKSALTIQFIQSYFVTDYDPTIEDSYTKQCVIDDRAARLDILDTAGQEEFGAMREQYMRTGEGFLLVFSVTDRGSFEEIYKFQRQILRVKDRDEFPMILIGNKADLDHQRQVTQEEGQQLARQLKVTYMEASAKIRMNVDQAFHELVRVIRKFQEQECPPSPEPTRKEKDKKGCHCVIF
B5: PRPF31 (protein, UniProt Q8CCF0 1-499)
chain: MSLADELLADLEEAAEEEEGGSYGEEEEEPAIEDVQEETQLDLSGDSVKSIAKLWDSKMFAEIMMKIEEYISKQANVSEVMGPVEAAPEYRVIVDANNLTVEIENELNIIHKFIRDKYSKRFPELESLVPNALDYIRTVKELGNSLDKCKNNENLQQILTNATIMVVSVTASTTQGQQLSDEELERLEEACDMALELNASKHRIYEYVESRMSFIAPNLSIIIGASTAAKIMGVAGGLTNLSKMPACNIMLLGAQRKTLSGFSSTSVLPHTGYIYHSDIVQSLPPDLRRKAARLVAAKCTLAARVDSFHESTEGKVGYELKDEIERKFDKWQEPPPVKQVKPLPAPLDGQRKKRGGRRYRKMKERLGLTEIRKQANRMSFGEIEEDAYQEDLGFSLGHLGKSGSGRVRQTQVNEATKARISKTLQRTLQKQSVVYGGKSTIRDRSSGTASSVAFTPLQGLEIVNPQAAEKKVAEANQKYFSSMAEFLKVKGEKSGTMST
B6: RALA (protein, UniProt P63321 1-206)
chain: MAANKPKGQNSLALHKVIMVGSGGVGKSALTLQFMYDEFVEDYEPTKADSYRKKVVLDGEEVQIDILDTAGQEDYAAIRDNYFRSGEGFLCVFSITEMESFAATADFREQILRVKEDENVPFLLVGNKSDLEDKRQVSVEEAKNRADQWNVNYVETSAKTRANVDKVFFDLMREIRARKMEDSKEKNGKKKRKSLAKRIRERCCIL
B7: PDLIM5 (protein, UniProt Q8CI51-1 1-591)
chain: MSNYSVSLVGPAPWGFRLQGGKDFNMPLTISSLKDGGKASQAHVRIGDVVLSIDGISAQGMTHLEAQNKIKACTGSLNMTLQRASAAAKSEPVSVQKGEPKEVVKPVPITSPAVSKVTSTTNMAYNKAPRPFGSVSSPKVTSIPSPSSAFTPAHAATSSHASPTPVAAATPLHLSASGLHVSANLSADQCSSPPNTGKPAVNVPRQPTVTSVCSESAQELAEGQRRGSQGDIKQQNGPPRKHIVERNTEFYHIPTHSDASKKRLIEDTEDWRPRTGTTQSRSFRILAQITGTEHLTESENDNTKKANSTQEPSQQPASSGASPLSASEGPESPGSSRPSVAGLRSAAAFKPVGSTSVKSPSWQRPNQAAPSTGRISNNARSSGTGASVGPPQPSDQDTLVQRAEHIPAGKRTPMCAHCNQVIRGPFLVALGKSWHPEEFNCAHCKNTMAYIGFVEEKGALYCELCYEKFFAPECGRCQRKILGEVINALKQTWHVSCFVCVACGKPIRNNVFHLEDGEPYCETDYYALFGTICRGCEFPIEAGDMFLEALGYTWHDTCFVCSVCCESLEGQTFFSKKDKPLCKKHAHSVNF
B8: PIP4K2B (protein, UniProt Q80XI4 1-416)
chain: MSSNCTSTTAVAVAPLSASKTKTKKKHFVCQKVKLFRASEPILSVLMWGVNHTINELSNVPVPVMLMPDDFKAYSKIKVDNHLFNKENLPSRFKFKEYCPMVFRNLRERFGIDDQDYQNSVTRSAPINSDSQGRCGTRFLTTYDRRFVIKTVSSEDVAEMHNILKKYHQFIVECHGNTLLPQFLGMYRLTVDGVETYMVVTRNVFSHRLTVHRKYDLKGSTVAREASDKEKAKDLPTFKDNDFLNEGQKLHVGEESKKNFLEKLKRDVEFLAQLKIMDYSLLVGIHDVDRAEQEEMEVEERAEEEECENDGVGGSLLCSYGTPPDSPGNLLSFPRFFGPGEFDPSVDVYAMKSHESAPKKEVYFMAIIDILTPYDAKKKAAHAAKTVKHGAGAEISTVNPEQYSKRFNEFMSNILT
B9: JUND (protein, UniProt P15066 1-341)
chain: METPFYGEEALSGLAAGASSVAGATGAPGGGGFAPPGRAFPGAPPTSSMLKKDALTLSLAEQGAAGLKPGSATAPSALRPDGAPDGLLASPDLGLLKLASPELERLIIQSNGLVTTTPTSTQFLYPKVAASEEQEFAEGFVKALEDLHKQSQLGAATAATSGAPAPPAPADLAATPGATETPVYANLSSFAGGAGPPGGAATVAFAAEPVPFPPPPGALGPPPPPHPPRLAALKDEPQTVPDVPSFGDSPPLSPIDMDTQERIKAERKRLRNRIAASKCRKRKLERISRLEEKVKTLKSQNTELASTASLLREQVAQLKQKVLSHVNSGCQLLPQHQVPAY

In this experiment the target is T1, FLAG-C18ORF25-WT (mouse). The experiment can be described thus: affinity purification with mass spectrometry.
In the case of Rab4 (mouse (endogenous in C2C12)), the binding result was “binds”.
On to FOXK2 (from UniProt Q3UCQ1 1-651), for which the binding result was “binds”.
Next, SCRIB (from UniProt Q80U72 1-1665): “binds”.
Next, “SQLE (from UniProt P52019 1-572) (enzyme)”: “binds”; JUN (from UniProt P05627 1-334): “binds”.
Next, “GPATCH2 (C14ORF118) (mouse (endogenous in C2C12))”: “binds”; COBL (from UniProt Q5NBX1 1-1337): “no binding”; RHOA (from UniProt Q9QUI0 1-193): “binds”.
Regarding Rab5 (mouse (endogenous in C2C12)), the binding result is “binds”.
For GNAS (from UniProt P63094 1-394), the binding entry is on record as “binds”.
Under FAM76B (from UniProt Q80XP8 1-339) stands “binds”; under CDC42 (from UniProt P60766 1-191), “binds”; under B1, “binds”.
Under B2 stands “binds”.
Next, B3: “binds”; B4: “binds”; B5: “binds”.
As for B6, the binding result is reported as “binds”.
Next, B7: “binds”.
Under B8 stands “binds”; under B9, “binds”.
